Assay results as given in patent US20140106390A1, “BIOMARKERS FOR THE TREATMENT OF MULTIPLE MYELOMA” (CELGENE CORPORATION, priority 2011, published 2014).
For at least one compound, name, drawing or mass did not settle the structure.

Tested on: serum M-protein
Conditions: dexamethasone TGI model, population estimate, 346 patients

C[C@@H]1C[C@H]2[C@@H]3CCC4=CC(=O)C=C[C@]4(C)[C@@]3(F)[C@@H](O)C[C@]2(C)[C@@]1(O)C(=O)CO [Dexamethasone, dexamethasone]
KL, rate of M-protein level increase (tumor growth rate), estimate: 0.0264 wk^−1
